No constants are given. Whether binding was seen depends on the method and setting. Some results given as binding are weak or reduced against the parent protein; the word gives no strength.
Target: T1, variant HnRNPG (cancer-associated variant of heterogeneous ribonucleoprotein G) (human)
T1 sequence: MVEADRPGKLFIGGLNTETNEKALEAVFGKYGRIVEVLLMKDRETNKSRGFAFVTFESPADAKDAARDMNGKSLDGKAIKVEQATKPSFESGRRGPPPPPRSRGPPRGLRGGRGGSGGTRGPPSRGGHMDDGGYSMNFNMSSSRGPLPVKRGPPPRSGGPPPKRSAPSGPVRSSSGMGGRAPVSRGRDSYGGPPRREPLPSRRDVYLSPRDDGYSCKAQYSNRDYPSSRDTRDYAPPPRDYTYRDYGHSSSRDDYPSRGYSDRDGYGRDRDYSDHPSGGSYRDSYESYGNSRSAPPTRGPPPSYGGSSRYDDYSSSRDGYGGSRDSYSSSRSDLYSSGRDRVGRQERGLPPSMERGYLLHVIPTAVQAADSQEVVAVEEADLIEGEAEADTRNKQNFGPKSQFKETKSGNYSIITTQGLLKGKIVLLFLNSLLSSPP
Test: immunoprecipitation with VB1-213, MS/MS ion fragmentation

binding: binds
B1: VB1-213 monoclonal antibody (antibody, human IgG1, V domains shown)
VH: EVQLLESGGGLVQPGGSLRLSCAASGFTFRSYAMSWVRQAPGKGLEWVSTISGRGVTTYYADSVKGRFTISRDNSKNTLYLQMNSLRADDTALYYCAKDRTRYYGMDVWGQGTTVTVSS
VL: SYELTQPPSVSVSPGQTASITCSGNKLGDKYACWYQQKSGQSPVLVIYQDSKRPSGIPERFSGSNSGNTATLTISGTQALDEADYYCQAWDNSTAVFGGGTKLTVLG
